This note sets out measurements from PMC11876601 (Molecular Systems Biology, 2025).

Values joined by “and” are separate entries in the source; they are usually repeats but may differ in a detail not shown here. Equal entries are not always repeated.

In data set [1] the test system is Suit2-07 cells. Nature of the data set: Cell proliferation assay, GEM + ATR inhibitor (Incucyte confluence, 72 h). Format: cell-based, human.
The test system of data set [2] is p-sites in DNA-damaged AsPC-1 cells. In words: decryptM dose-resolved phosphoproteomics of ATRi in GEM-pre-treated cells. The class given is cell-based, human. The settings on record: 1 µM GEM 3 h, then ATRi 1 nM-10 µM 1 h. The method, then:
(§1) Cell culture medium was replaced 24 h after seeding. […] For time point 0, AsPC-1 cells were treated with a vehicle and lysed immediately. The final DMSO concentration in all experiments was 0.2%.
(§2) Briefly, cells were washed twice with PBS and lysed in SDS lysis buffer (2% SDS in 40 mM Tris-HCl, pH 7.6), followed by sonication for 10 min (30 s on/30 s off) using a Bioruptor (Diagenode). For DNA hydrolysis, samples were boiled at 95 °C for 10 min and incubated with 2% trifluoroacetic acid (TFA) for 1 min, before the reaction was quenched using 4% N-methylmorpholine. Lysate was cleared by centrifugation at 11,000 × g for 5 min and protein concentration was determined using the Pierce BCA Protein Assay Kit (Thermo Scientific).
(§3) Using 70% ethanol, samples were then precipitated on beads, followed by washing thrice with 80% ethanol and once with 100% acetonitrile. Subsequently, proteins were reduced and alkylated using 10 mM TCEP, 50 mM chloroacetamide, and 2 mM CaCl2 in 100 mM EPPS/NaOH, pH 8.5 for 1 h at 37 °C, followed by tryptic digestion at 37 °C for 16 h. Peptides were acidified with 1% TFA and desalted on Chromabond HLB plates (30 µm particle size, 10 mg capacity, Machery-Nagel), using 0.1% TFA for equilibration and sample loading, and 0.1% TFA in 70% acetonitrile for peptide elution. Recovered peptides were freeze-dried by vacuum-centrifugation and stored at −20 °C.
Depending on the experiment, samples were either labeled with TMT-11plex (decryptM), TMT-10plex (non-decryptM, quadruplicates), or TMTpro reagent (time-series; all Thermo Scientific). Therefore, dried peptides were reconstituted in 15 µl 100 mM EPPS, pH 8.5 and each treatment condition was labeled with one channel of the respective TMT reagent (5 µl of 25 µg/µl reagent, Appendix Tables S4–S6). The reaction was incubated for 1 h at 23 °C and subsequently quenched with 0.4% hydroxylamine. Then, samples were pooled, acidified with 1% formic acid, and freeze-dried by vacuum-centrifugation. […]

The test system of data set [3] is PANC-1 cells. In words: Cell proliferation assay, GEM + ATR inhibitor (Incucyte confluence, 72 h).
Data set [4] has as its system p-sites in AsPC-1 cells. In words: Phosphoproteomics 1 µM GEM vs. vehicle (4 h). The class given is cell-based, human. The settings on record: 1 µM GEM vs. untreated. The method, then:
as §1, §2, §3
Depending on the experiment, samples were either labeled with TMT-11plex (decryptM), TMT-10plex (non-decryptM, quadruplicates), or TMTpro reagent (time-series; all Thermo Scientific). Therefore, dried peptides were reconstituted in 15 µl 100 mM EPPS, pH 8.5 and each treatment condition was labeled with one channel of the respective TMT reagent (5 µl of 25 µg/µl reagent, Appendix Tables S4–S6). The reaction was incubated for 1 h at 23 °C and subsequently quenched with 0.4% hydroxylamine. Then, samples were pooled, acidified with 1% formic acid, and freeze-dried by vacuum-centrifugation. Labeled peptide pools were desalted on C18 Sep-Pak cartridges (37–55 µm particle size, 50 mg capacity, Waters), using 0.1% formic acid as equilibration solvent, and 0.1% formic acid in 60% acetonitrile was used as elution solvent. Eluted peptides were freeze-dried and stored at −20 °C until further use.
Basic reversed-phase (bRP) fractionation of peptides was performed on a Vanquish HPLC (Thermo Scientific). In short, dried peptides were reconstituted in 200 µl 25 mM ammonium bicarbonate, pH 8.0 and directly injected onto a Waters BEH130 XBridge C18 column (3.5 µm, 4.6 × 250 mm). […] Using an automated fraction collector, 96 fractions were collected between min 7 and 55 after injection. Fractions were acidified with 1% formic acid and pooled to 48 fractions, before they were freeze-dried and stored at −20 °C. […]

Where [5] appears, read: experiment ATRi (ATR inhibitor alone), slope of fitted dose-response curve.
The mark [6] stands for this setting: experiment GEM+ATRi_dose1, slope of fitted dose-response curve.
Where [7] appears, read: experiment GEM+ATRi_dose2, slope of fitted dose-response curve.
Where [8] appears, read: experiment GEM+ATRi_dose3, slope of fitted dose-response curve.

As for `CNCc1ccc(-c2cc(-c3nc(-c4ccc(S(=O)(=O)C(C)C)cc4)cnc3N)on2)cc1` [Berzosertib], the Curve slope in data set [1] (setting [5]) is 2.00; in data set [1] (setting [6]), 3.50; in data set [1] (setting [7]) it was 3.29; in data set [1] (setting [8]), 2.34; in data set [3] (setting [5]), 1.03 and 1.14; in data set [3] (setting [6]), 2.25 and 1.73. Also, the Curve slope in data set [3] (setting [7]) is 3.31 and 2.16; in data set [3] (setting [8]), 2.04 and 2.65. Also, the “number of dose-dependently regulated p-sites” value in data set [2] stood at 840.

`C[C@@H]1COCCN1c1cc(C2([S@](C)(=N)=O)CC2)nc(-c2cc[nH]c3nccc2-3)n1` [Ceralasertib]: the Curve slope in data set [1] (setting [5]) was 1.85; in data set [1] (setting [6]), 4.92; in data set [1] (setting [7]), 3.51; in data set [1] (setting [8]), 2.88. Also, the “number of dose-dependently regulated p-sites” value in data set [2] is reported as 421.

For `Nc1ccn([C@@H]2O[C@H](CO)[C@@H](O)C2(F)F)c(=O)n1` [GEM, Gemcitabine], the Curve slope in data set [1] (experiment GEM (GEM alone), slope of fitted dose-response curve) is 2.44 and 2.30 and 1.96 and 2.05. In data set [4], the “number of down-regulated p-peptides” value amounted to 198, the “number of regulated pSQ/pTQ motif sites” value is reported as 135 and the “number of up-regulated p-peptides” value is recorded as 216. For the same compound, the “number of statistically significant GEM-regulated p-peptides” value in data set [4] (adjusted p < 0.01, log2 FC > 1) came to 414.

Turning to `Nc1nn2cc(F)cnc2c1C(=O)Nc1cncc(F)c1N1CCC(C(=O)N2CCN(C3COC3)CC2)CC1` [Gartisertib], the Curve slope in data set [1] (setting [5]) was 2.18; in data set [1] (setting [6]) it was 3.55; in data set [1] (setting [7]), 8.53; in data set [1] (setting [8]) it was 3.33; in data set [3] (setting [5]), 1.65 and 1.57 and 0.94; in data set [3] (setting [6]) it was 3.05 and 3.59 and 1.87. Besides, the Curve slope is 2.88 and 1.50 and 2.63 in data set [3] (setting [7]); 3.22 and 3.21 and 2.91 in data set [3] (setting [8]). In addition, the “number of dose-dependently regulated p-sites” value in data set [2] was determined as 1015.
